Drawing on patent US20100034831A1 (DOMANTIS, published 2010), this text covers binding for three molecules.

Protein sequences, listed by entry. Tags and fused reporters are not part of them. Lines headed by an entry give the natural chain unless they say otherwise; changes in a name come on top. Chains listed by the source or under a name are the forms on record and can include a tag or linker.
cynomolgus TNFR1 on cynomolgus embryo skin fibroblast cells (cynomolgus (Macaca fascicularis)) (Q2PFV5, form named): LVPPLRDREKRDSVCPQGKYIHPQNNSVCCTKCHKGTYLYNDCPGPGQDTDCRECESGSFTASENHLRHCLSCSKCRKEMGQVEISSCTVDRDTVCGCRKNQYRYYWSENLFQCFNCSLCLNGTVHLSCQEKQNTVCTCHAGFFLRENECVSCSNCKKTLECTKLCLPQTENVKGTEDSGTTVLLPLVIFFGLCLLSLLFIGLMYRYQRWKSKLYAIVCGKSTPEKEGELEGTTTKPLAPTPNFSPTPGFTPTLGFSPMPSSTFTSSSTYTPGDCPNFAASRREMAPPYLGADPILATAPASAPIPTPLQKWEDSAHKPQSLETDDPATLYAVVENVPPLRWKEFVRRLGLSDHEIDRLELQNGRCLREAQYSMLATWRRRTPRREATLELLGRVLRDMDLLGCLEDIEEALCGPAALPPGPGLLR

No constants are given. Whether binding was seen depends on the method and setting. Some results given as binding are weak or reduced against the parent protein; the word gives no strength. For part of these data: Where a sequence is shown, tags or fusion partners need not be part of it.

The target of assay [1] is cynomolgus TNFR1 on cynomolgus embryo skin fibroblast cells (cynomolgus (Macaca fascicularis)) (UniProt Q2PFV5). Nature of the assay: concluded from the cell-based IL-8 release assay on cynomolgus fibroblasts.
Assay [2] concerns the target T1, mTNFR/Fc (R&D systems) (mouse) (UniProt P25118).
T1 sequence (looked up): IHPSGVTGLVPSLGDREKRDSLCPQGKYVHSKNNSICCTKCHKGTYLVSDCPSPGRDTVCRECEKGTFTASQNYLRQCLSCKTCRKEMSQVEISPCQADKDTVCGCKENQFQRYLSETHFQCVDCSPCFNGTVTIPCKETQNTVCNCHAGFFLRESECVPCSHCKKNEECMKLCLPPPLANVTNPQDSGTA
Nature of the assay: ELISA, plate coated with mTNFR/Fc, DOM1m standard or sample added.

B1: TAR2h-131-511 (protein)
chain: EVQLLESGGGLVQPGGSLRLSCAASGFTFAHETMVWVRQAPGKGLEWVSHIPPVGQDPFYADSVKGRFTISRDNSKNTLYLQMNSLRAEDTAVYYCALLPKRGPWFDYWGQGTLVTVSS
B1: the binding result in assay [1] was “binds”.

B2: TAR2h-131-117 (protein)
chain: EVQLLESGGGLVQPGGSLRLSCAASGFTFAHETMVWVRQAPGKGLEWVSHIDRVGQDPYYADSVEGRFTISRDNSKNTLYLQMNSLRAEDTAVYYCAVLPKRGPWFDYWGQGTLVTVSS
For the molecule B2, the binding result in assay [1] is “binds”.

B3: TAR2m-21-23 (anti-TNFR1 dAb monomer) (other)
VH: EVQLLESGGGLVQPGGSLRLSCAASGFTFNRYSMGWLRQAPGKGLEWVSRIDSYGRGTYYEDPVKGRFSISRDNSKNTLYLQMNSLRAEDTAVYYCAKISQFGSNAFDYWGQGTQVTVSS
Turning to B3, the binding result in assay [2] is “binds”.
